# Data reported in the supplement of paper PMC8728848.
# This is one part of the list.
# B1: SP15308F-bth-333-19-333 (Bacteroides thetaiotaomicron) (protein)
# chain: SCNNEWESEQYVQMVSFKAPVNAQGVTPIYIRYKPEGKVTYQLPLIVSGSTMNSKDLNVHVGLDLDTLDVLNVEHFGSRKELFFKPLENKYYEFPETVQIPAGECTSLLPIDFALKDLDQVDKWVLPLAIQSNDPSHNYQANPRKFYRRAMLRISPFNDYSGQYSATAYKVYFKGNEKEAIVPEYHTSYVIDDKTIFFYAGLIDIDRLDRKYYKIKFEFTEEKIDLQTRKLKISSDNEDINLVVKGQPSYTVEEEMDATRPYLKHIYVTINNLEYEFTDYTSVPGYPLEYVVKGSLTMERKINTQIPDEDQAIEW
# What was measured:
# Experiment in all cases: glycan array binding signal (z-score within array); higher = stronger binding
# Settings in all cases: glycan notation: IUPAC condensed, linker removed
# [1] = target: Fuc(a1-2)[GalNAc(a1-3)]Gal(b1-3)GlcNAc(b1-6)GalNAc
# In short: (§1)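 Arrays were curated from the Consortium for Functional Glycomics database, 3228 in total, and kept only where the protein sequence was available. Binding is expressed as a within-array Z-score. This score was averaged across arrays of the same protein sequence at different concentrations or buffers and across linkers, and negative values can be read as non-binding.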
# [2] = target: Fuc(a1-2)[GalNAc(a1-3)]Gal(b1-4)Glc
# In short: as §1
# [3] = target: Fuc(a1-2)[GalNAc(a1-3)]Gal(b1-4)GlcNAc
# In short: as §1
# [4] = target: Fuc(a1-2)[GalNAc(a1-3)]Gal(b1-4)GlcNAc(b1-2)Man
# In short: as §1
# [5] = target: Fuc(a1-2)[GalNAc(a1-3)]Gal(b1-4)GlcNAc(b1-2)Man(a1-3)[Fuc(a1-2)[GalNAc(a1-3)]Gal(b1-4)GlcNAc(b1-2)Man(a1-6)]Man(b1-4)GlcNAc(b1-4)GlcNAc
# In short: as §1
# [6] = target: Fuc(a1-2)[GalNAc(a1-3)]Gal(b1-4)GlcNAc(b1-2)Man(a1-3)[Fuc(a1-2)[GalNAc(a1-3)]Gal(b1-4)GlcNAc(b1-2)Man(a1-6)]Man(b1-4)GlcNAc(b1-4)[Fuc(a1-6)]GlcNAc
# In short: as §1
# [7] = target: Fuc(a1-2)[GalNAc(a1-3)]Gal(b1-4)GlcNAc(b1-3)Gal(b1-4)GlcNAc
# In short: as §1
# [8] = target: Fuc(a1-2)[GalNAc(a1-3)]Gal(b1-4)GlcNAc(b1-3)Gal(b1-4)GlcNAc(b1-3)Gal(b1-4)GlcNAc
# In short: as §1
# [9] = target: Fuc(a1-2)[GalNAc(a1-3)]Gal(b1-4)GlcNAc(b1-3)GalNAc
# In short: as §1
# [10] = target: Fuc(a1-2)[GalNAc(a1-3)]Gal(b1-4)GlcNAc(b1-3)[Fuc(a1-2)[GalNAc(a1-3)]Gal(b1-4)GlcNAc(b1-6)]GalNAc
# In short: as §1
# [11] = target: Fuc(a1-2)[GalNAc(a1-3)]Gal(b1-4)GlcNAc(b1-6)GalNAc
# In short: as §1
# [12] = target: Fuc(a1-2)[GalNAc(a1-3)]Gal(b1-4)[Fuc(a1-3)]GlcNAc
# In short: as §1
# [13] = target: Fuc(a1-2)[GalNAc(a1-3)]Gal(b1-4)[Fuc(a1-3)]GlcNAc(b1-3)GalNAc
# In short: as §1
# [14] = target: Fuc(a1-2)[GalNAc(a1-4)]Gal(b1-4)GlcNAc
# In short: as §1
# [15] = target: Fuc(a1-2)[GalNAc(b1-3)]Gal
# In short: as §1
# Fuc(a1-3)GlcNAc = target: Fuc(a1-3)GlcNAc
# In short: as §1
# [16] = target: Fuc(a1-3)[Gal(b1-4)]Glc6S
# In short: as §1
# [17] = target: Fuc(a1-3)[Gal(b1-4)]GlcNAc
# In short: as §1
# [18] = target: Fuc(a1-3)[Gal(b1-4)]GlcNAc(b1-2)Man
# In short: as §1
# [19] = target: Fuc(a1-3)[Gal(b1-4)]GlcNAc(b1-2)Man(a1-3)[Fuc(a1-3)[Gal(b1-4)]GlcNAc(b1-2)Man(a1-6)]Man(b1-4)GlcNAc(b1-4)GlcNAc
# In short: as §1
# [20] = target: Fuc(a1-3)[Gal(b1-4)]GlcNAc(b1-2)Man(a1-3)[Fuc(a1-3)[Gal(b1-4)]GlcNAc(b1-2)Man(a1-6)]Man(b1-4)GlcNAc(b1-4)[Fuc(a1-6)]GlcNAc
# In short: as §1
# [21] = target: Fuc(a1-3)[Gal(b1-4)]GlcNAc(b1-3)Gal(b1-3)[Fuc(a1-4)]GlcNAc
# In short: as §1
# [22] = target: Fuc(a1-3)[Gal(b1-4)]GlcNAc(b1-3)Gal(b1-4)[Fuc(a1-3)]GlcNAc
# In short: as §1
# [23] = target: Fuc(a1-3)[Gal(b1-4)]GlcNAc(b1-3)Gal(b1-4)[Fuc(a1-3)]GlcNAc(b1-3)Gal(b1-4)[Fuc(a1-3)]GlcNAc
# In short: as §1
# [24] = target: Fuc(a1-3)[Gal(b1-4)]GlcNAc(b1-3)GalNAc
# In short: as §1
# [25] = target: Fuc(a1-3)[Gal(b1-4)]GlcNAc(b1-6)GalNAc
# In short: as §1
# [26] = target: Fuc(a1-3)[Gal(b1-4)]GlcNAc(b1-6)[Gal(b1-3)GlcNAc(b1-3)]Gal(b1-4)Glc
# In short: as §1
# [27] = target: Fuc(a1-3)[Gal(b1-4)]GlcNAc6S
# In short: as §1
# [28] = target: Fuc(a1-3)[Gal3S(b1-4)]Glc
# In short: as §1
# [29] = target: Fuc(a1-3)[Gal3S(b1-4)]GlcNAc
# In short: as §1
# [30] = target: Fuc(a1-3)[Gal3S(b1-4)]GlcNAc6S
# In short: as §1
# [31] = target: Fuc(a1-3)[GalNAc(b1-4)]GlcNAc
# In short: as §1
# [32] = target: Fuc(a1-3)[GalNAc(b1-4)]GlcNAc6S
# In short: as §1
# Fuc(a1-4)GlcNAc = target: Fuc(a1-4)GlcNAc
# In short: as §1
# Fuc(b1-3)GlcNAc = target: Fuc(b1-3)GlcNAc
# In short: as §1
# Gal(a1-2)Gal = target: Gal(a1-2)Gal
# In short: as §1
# Gal(a1-3)Gal = target: Gal(a1-3)Gal
# In short: as §1
binder,measurement,setting,value
B1,glycan array binding signal (z-score),[1],-0.116
same,glycan array binding signal (z-score),[2],0.652
same,glycan array binding signal (z-score),[3],-0.582
same,glycan array binding signal (z-score),[4],-0.687
same,glycan array binding signal (z-score),[5],-0.498
same,glycan array binding signal (z-score),[6],-0.115
same,glycan array binding signal (z-score),[7],-0.619
same,glycan array binding signal (z-score),[8],0.048
same,glycan array binding signal (z-score),[9],0.27
same,glycan array binding signal (z-score),[10],0.11
same,glycan array binding signal (z-score),[11],0.488
same,glycan array binding signal (z-score),[12],0.351
same,glycan array binding signal (z-score),[13],1.05
same,glycan array binding signal (z-score),[14],0.042
same,glycan array binding signal (z-score),[15],-1.22
same,glycan array binding signal (z-score),Fuc(a1-3)GlcNAc,1.93
same,glycan array binding signal (z-score),[16],2.16
same,glycan array binding signal (z-score),[17],-0.28
same,glycan array binding signal (z-score),[18],-0.304
same,glycan array binding signal (z-score),[19],-0.968
same,glycan array binding signal (z-score),[20],-0.717
same,glycan array binding signal (z-score),[21],0.591
same,glycan array binding signal (z-score),[22],0.248
same,glycan array binding signal (z-score),[23],-0.534
same,glycan array binding signal (z-score),[24],0.746
same,glycan array binding signal (z-score),[25],0.976
same,glycan array binding signal (z-score),[26],0.652
same,glycan array binding signal (z-score),[27],1.11
same,glycan array binding signal (z-score),[28],-0.073
same,glycan array binding signal (z-score),[29],-0.478
same,glycan array binding signal (z-score),[30],0.552
same,glycan array binding signal (z-score),[31],6.34
same,glycan array binding signal (z-score),[32],-0.769
same,glycan array binding signal (z-score),Fuc(a1-4)GlcNAc,7.35
same,glycan array binding signal (z-score),Fuc(b1-3)GlcNAc,-1.71
same,glycan array binding signal (z-score),Gal(a1-2)Gal,-0.492
same,glycan array binding signal (z-score),Gal(a1-3)Gal,-1.05

# Not a retest: entries from further up.
binder,measurement,setting,value
B1,glycan array binding signal (z-score),[26],0.652
same,glycan array binding signal (z-score),[27],1.11
same,glycan array binding signal (z-score),[28],-0.073
same,glycan array binding signal (z-score),[29],-0.478
same,glycan array binding signal (z-score),[30],0.552
same,glycan array binding signal (z-score),[31],6.34
same,glycan array binding signal (z-score),[32],-0.769
same,glycan array binding signal (z-score),Fuc(a1-4)GlcNAc,7.35
same,glycan array binding signal (z-score),Fuc(b1-3)GlcNAc,-1.71
